Results as given in the supplement of paper PMC12067093, “Discovery and optimisation of a covalent ligand for TRIM25 and its application to targeted protein ubiquitination” (Chemical Science, 2025).
This is one part of the list.

Amino acid sequences for entries named in this document (tags omitted). A change or cut given only in a name is not applied to a line headed by its entry.
UniProt Q9Y520: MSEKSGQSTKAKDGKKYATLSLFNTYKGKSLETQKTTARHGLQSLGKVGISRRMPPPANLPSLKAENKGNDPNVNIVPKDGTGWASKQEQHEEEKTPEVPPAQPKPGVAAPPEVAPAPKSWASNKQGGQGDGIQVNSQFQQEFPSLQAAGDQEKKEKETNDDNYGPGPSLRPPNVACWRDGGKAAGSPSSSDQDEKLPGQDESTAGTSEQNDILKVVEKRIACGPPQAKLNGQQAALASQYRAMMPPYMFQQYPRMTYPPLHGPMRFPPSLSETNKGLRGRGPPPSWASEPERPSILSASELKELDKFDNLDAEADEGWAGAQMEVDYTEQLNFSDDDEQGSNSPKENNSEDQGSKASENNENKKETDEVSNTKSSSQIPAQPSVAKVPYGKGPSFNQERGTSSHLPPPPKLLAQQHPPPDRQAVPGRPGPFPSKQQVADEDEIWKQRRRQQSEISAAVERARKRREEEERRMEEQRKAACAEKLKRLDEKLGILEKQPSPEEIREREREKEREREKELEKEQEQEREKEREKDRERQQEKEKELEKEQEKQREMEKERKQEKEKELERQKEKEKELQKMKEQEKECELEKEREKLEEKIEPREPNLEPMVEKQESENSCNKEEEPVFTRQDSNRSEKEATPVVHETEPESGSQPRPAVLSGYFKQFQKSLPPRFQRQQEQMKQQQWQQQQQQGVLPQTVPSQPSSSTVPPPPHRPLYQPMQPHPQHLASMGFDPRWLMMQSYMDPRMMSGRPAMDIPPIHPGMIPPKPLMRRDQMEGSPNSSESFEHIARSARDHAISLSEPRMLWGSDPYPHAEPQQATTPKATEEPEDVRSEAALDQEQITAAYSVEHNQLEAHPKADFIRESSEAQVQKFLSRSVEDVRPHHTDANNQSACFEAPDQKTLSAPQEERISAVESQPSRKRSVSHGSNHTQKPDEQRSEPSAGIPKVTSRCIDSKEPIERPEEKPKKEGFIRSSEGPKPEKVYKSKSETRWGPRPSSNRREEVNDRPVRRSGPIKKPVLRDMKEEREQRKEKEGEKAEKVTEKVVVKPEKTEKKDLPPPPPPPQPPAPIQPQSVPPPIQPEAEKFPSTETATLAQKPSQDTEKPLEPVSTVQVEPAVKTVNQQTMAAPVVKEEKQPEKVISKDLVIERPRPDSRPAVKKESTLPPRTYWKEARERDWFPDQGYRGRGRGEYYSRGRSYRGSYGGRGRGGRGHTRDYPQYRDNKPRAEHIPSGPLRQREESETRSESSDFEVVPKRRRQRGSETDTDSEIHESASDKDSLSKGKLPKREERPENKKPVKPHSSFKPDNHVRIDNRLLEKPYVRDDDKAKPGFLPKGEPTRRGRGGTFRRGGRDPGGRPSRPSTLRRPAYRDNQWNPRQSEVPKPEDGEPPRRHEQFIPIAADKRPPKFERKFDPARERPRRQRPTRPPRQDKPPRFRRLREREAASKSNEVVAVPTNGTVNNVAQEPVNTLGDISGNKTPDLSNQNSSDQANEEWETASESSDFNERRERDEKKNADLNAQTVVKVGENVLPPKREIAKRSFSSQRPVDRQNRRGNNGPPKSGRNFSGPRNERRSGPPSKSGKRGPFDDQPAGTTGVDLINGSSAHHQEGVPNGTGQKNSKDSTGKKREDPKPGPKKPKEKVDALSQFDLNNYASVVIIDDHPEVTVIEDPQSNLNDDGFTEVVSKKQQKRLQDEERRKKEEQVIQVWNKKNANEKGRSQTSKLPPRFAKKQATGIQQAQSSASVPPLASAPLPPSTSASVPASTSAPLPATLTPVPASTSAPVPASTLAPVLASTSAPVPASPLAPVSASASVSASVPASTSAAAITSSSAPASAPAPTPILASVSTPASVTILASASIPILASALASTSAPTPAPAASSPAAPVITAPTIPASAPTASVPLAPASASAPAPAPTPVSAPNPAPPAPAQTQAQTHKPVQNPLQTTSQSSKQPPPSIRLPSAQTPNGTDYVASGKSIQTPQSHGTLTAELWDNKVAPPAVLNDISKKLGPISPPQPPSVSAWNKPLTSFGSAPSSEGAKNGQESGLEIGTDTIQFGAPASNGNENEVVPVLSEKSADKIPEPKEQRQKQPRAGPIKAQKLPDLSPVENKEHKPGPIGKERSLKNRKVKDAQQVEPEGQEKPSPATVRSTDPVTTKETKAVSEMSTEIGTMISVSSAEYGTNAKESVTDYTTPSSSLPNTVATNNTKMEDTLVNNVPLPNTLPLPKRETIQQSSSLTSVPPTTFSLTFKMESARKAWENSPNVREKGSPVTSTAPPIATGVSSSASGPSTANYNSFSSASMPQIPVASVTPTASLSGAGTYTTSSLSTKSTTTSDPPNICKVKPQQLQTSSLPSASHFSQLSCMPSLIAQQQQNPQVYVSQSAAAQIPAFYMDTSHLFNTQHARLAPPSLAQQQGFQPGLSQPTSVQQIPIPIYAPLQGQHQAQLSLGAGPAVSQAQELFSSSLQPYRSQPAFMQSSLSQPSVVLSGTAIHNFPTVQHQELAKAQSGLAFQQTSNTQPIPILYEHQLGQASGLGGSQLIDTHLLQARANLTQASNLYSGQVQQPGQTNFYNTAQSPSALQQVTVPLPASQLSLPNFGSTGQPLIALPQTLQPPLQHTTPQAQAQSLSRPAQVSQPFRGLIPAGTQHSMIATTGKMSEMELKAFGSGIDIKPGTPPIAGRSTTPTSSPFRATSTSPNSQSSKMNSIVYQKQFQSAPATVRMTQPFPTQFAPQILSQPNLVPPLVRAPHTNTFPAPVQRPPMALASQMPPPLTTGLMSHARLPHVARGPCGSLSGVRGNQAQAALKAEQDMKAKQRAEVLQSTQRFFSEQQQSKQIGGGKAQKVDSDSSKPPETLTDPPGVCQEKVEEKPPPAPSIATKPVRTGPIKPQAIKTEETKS
UniProt O94906: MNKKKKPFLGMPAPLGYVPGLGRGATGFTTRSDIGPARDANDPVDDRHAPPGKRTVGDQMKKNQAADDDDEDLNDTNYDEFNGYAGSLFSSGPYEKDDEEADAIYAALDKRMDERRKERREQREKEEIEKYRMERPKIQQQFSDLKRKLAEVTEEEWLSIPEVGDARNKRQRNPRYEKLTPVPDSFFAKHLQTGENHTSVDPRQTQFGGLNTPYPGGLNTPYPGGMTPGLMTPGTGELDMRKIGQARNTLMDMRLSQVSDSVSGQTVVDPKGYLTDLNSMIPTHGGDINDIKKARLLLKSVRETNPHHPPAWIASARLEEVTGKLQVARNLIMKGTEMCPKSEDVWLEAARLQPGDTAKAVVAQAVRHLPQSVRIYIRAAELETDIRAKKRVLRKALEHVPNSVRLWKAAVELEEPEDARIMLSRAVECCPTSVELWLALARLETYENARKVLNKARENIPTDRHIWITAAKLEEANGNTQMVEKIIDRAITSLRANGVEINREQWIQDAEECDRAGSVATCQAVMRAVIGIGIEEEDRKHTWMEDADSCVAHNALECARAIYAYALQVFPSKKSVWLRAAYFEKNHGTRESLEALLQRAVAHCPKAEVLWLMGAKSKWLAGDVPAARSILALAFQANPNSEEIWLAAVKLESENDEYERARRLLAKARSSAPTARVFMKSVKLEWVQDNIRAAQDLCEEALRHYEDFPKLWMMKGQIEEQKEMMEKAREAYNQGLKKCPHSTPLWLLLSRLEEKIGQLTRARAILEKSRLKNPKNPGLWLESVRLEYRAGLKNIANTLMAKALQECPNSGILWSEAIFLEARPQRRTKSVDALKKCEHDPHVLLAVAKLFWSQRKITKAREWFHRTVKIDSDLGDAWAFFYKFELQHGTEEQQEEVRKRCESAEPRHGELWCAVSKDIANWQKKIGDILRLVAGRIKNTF
UniProt Q13131: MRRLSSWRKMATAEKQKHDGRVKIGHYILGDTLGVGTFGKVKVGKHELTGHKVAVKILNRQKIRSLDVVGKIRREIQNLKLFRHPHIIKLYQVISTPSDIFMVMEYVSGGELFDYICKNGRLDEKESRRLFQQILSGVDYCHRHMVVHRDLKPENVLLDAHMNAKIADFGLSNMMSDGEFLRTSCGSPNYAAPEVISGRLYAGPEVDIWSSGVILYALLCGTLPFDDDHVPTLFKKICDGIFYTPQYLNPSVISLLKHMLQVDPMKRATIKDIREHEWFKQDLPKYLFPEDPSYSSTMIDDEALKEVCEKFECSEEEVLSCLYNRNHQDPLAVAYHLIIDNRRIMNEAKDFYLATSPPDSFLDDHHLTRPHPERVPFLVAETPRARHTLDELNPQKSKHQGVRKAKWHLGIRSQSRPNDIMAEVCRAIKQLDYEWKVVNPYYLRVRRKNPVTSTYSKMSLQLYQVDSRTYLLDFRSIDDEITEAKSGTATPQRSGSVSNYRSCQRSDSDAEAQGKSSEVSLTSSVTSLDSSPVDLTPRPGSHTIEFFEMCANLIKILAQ
UniProt Q05655: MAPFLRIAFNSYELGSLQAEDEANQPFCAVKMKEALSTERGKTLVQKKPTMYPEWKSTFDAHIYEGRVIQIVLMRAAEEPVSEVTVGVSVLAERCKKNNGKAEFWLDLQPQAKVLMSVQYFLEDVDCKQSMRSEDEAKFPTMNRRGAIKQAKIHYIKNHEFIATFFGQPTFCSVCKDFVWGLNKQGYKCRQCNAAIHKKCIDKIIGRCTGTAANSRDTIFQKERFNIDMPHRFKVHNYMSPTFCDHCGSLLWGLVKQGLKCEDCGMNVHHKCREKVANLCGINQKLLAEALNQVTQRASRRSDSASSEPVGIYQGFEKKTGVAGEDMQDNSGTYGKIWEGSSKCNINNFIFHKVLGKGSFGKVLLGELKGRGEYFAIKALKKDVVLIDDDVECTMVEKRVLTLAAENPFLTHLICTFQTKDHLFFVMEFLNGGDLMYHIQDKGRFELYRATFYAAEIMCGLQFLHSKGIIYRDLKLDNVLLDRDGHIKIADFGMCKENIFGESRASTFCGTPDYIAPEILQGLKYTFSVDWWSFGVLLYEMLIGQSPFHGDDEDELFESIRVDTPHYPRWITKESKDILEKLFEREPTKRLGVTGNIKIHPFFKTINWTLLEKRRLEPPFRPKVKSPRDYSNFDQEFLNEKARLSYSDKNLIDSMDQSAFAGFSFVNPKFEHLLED
UniProt O14744, whole entry, looked up: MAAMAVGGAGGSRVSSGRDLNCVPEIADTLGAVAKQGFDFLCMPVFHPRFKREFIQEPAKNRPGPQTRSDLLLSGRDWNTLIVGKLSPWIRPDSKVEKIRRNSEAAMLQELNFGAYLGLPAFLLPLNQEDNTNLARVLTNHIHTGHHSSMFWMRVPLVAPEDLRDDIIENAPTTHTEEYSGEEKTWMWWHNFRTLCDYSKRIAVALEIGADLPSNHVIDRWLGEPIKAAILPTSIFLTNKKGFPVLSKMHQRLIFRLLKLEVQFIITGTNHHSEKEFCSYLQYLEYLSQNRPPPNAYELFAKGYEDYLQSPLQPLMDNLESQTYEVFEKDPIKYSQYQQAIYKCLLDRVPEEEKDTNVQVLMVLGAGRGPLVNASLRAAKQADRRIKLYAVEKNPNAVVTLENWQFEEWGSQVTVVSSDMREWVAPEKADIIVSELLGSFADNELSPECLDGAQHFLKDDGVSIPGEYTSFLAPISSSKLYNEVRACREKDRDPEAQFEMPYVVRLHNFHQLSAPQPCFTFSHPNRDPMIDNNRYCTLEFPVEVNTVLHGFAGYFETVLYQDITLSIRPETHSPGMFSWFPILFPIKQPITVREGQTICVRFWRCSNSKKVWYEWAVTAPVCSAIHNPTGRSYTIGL

These targets were tested with CC1Cc2ccccc2N1C(=O)C1CCCN(C1)C(=O)CCl (mixture of isomers) [TRIM25 ligand 11 (diastereomer mixture)] (assay: probe-labelled cysteine peptide fold change vs DMSO (competition) (log2 fold change); higher = less target engagement (more negative = stronger competition)). Conditions: 50 µM; THP-1; incubation time: 4 h.
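Note: competitive chemoproteomic profiling in live THP-1 cells with an iodoacetamide desthiobiotin (IA-DTB) probe, comparing probe-labelled peptide intensities in compound-treated cells against DMSO-treated controls.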

First: PRMT7_Q9NVM4_639+640_RPGQSHAAVLWMEYHLTPECTLSTGLLEPADPEGGCCWNPHCK (UniProt Q9NVM4)
Second: PRKCB_P05771_586_LGCGPEGER (UniProt P05771)
The “probe-labelled cysteine peptide fold change” value of the first is lower: -0.0846 for the first, 0.0851 for the second.

First: PRKCA_P17252_406_VLALLDKPPFLTQLHSCFQTVDR (UniProt P17252)
Second: PRPF3_O43395_37_VLGFSEPTVVTAALNCVGK (UniProt O43395)
The “probe-labelled cysteine peptide fold change” value of the first is lower: -0.111 for the first, -0.00147 for the second.

First: PRMT9_Q6P2P2_747_VFLDLSSLPCIPLSKPVELLR (UniProt Q6P2P2)
Second: PRKDC_P78527_4106_CLMDQATDPNILGR (UniProt P78527)
The “probe-labelled cysteine peptide fold change” value of the first is higher: -0.0643 for the first, -0.265 for the second.

First: PRPF4B_Q13523_962_DLLADLIGCQR (UniProt Q13523)
Second: PRIM1_P49642_170_GVHCWVCDESVR (UniProt P49642)
The “probe-labelled cysteine peptide fold change” value of the first is lower: -0.155 for the first, 0.472 for the second.

Compared with “PRKAR1B_P31321_18_GCELYVQLHGIQQVLK (UniProt P31321)”, “PRRC2C_Q9Y520_177_ETNDDNYGPGPSLRPPNVACWR (UniProt Q9Y520)” is higher in “probe-labelled cysteine peptide fold change” value: -0.251 for the first, -0.0927 for the second.

Going from “PRPF6_O94906_430_AVECCPTSVELWLALAR (UniProt O94906)” to “PRKDC_P78527_3837_APPCEYK (UniProt P78527)”, the “probe-labelled cysteine peptide fold change” value falls from 0.198 to -0.0417.

First: PRPS2_P11908_165_NCIIVSPDAGGAK (UniProt P11908)
Second: PRKAA1_Q13131_141_LFQQILSGVDYCHR (UniProt Q13131)
The “probe-labelled cysteine peptide fold change” value of the first is higher: 0.192 for the first, 0.0662 for the second.

Going from “PRKAA1_Q13131_238_ICDGIFYTPQYLNPSVISLLK (UniProt Q13131)” to “PRKCD_Q05655_208_CTGTAANSR (UniProt Q05655)”, the “probe-labelled cysteine peptide fold change” value rises from -0.173 to -0.0392.

First: PRKCD_Q05655_344_CNINNFIFHK (UniProt Q05655)
Second: PRMT1_Q99873_226_IHWWENVYGFDMSCIK (UniProt Q99873)
The “probe-labelled cysteine peptide fold change” value of the first is lower: -0.132 for the first, 0.03 for the second.

First: PRPF8_Q6P2Q9_547_FGNAFHLCR (UniProt Q6P2Q9)
Second: PRKAB1_Q9Y478_223_DTGISCDPALLPEPNHVMLNHLYALSIK (UniProt Q9Y478)
The “probe-labelled cysteine peptide fold change” value of the first is higher: 0.0782 for the first, -0.0459 for the second.

First: PRPF19_Q9UMS4_230_QVASHVGLHSASIPGILALDLCPSDTNK (UniProt Q9UMS4)
Second: PRKDC_P78527_1499+1507_QCLPSLDLSCK (UniProt P78527)
The “probe-labelled cysteine peptide fold change” value of the first is lower: -0.187 for the first, -0.0983 for the second.

First: PRPF6_O94906_739_CPHSTPLWLLLSR (UniProt O94906)
Second: PRR14L_Q5THK1_1503_AQDPSSAGCDQIHGAFAK (UniProt Q5THK1)
The “probe-labelled cysteine peptide fold change” value of the first is higher: -0.143 for the first, -0.185 for the second.

Going from “PRMT5_O14744_622_VWYEWAVTAPVCSAIHNPTGR (UniProt O14744)” to “PRKCQ_Q04759_193_QCNAAIHK (UniProt Q04759)”, the “probe-labelled cysteine peptide fold change” value falls from 0.371 to -0.0826.

Going from “PRKCSH_P14314_471_YEQGTGCWQGPNR (UniProt P14314)” to “PRPF19_Q9UMS4_351+355_VTDETSGCSLTCAQFHPDGLIFGTGTMDSQIK (UniProt Q9UMS4)”, the “probe-labelled cysteine peptide fold change” value rises from -0.0823 to 0.031.

Going from “PRKAR1A_P10644_362_VLGPCSDILKR (UniProt P10644)” to “PRKDC_P78527_2093_EQRDPTVHDDVLELEMDELNRHECMAPLTALVK (UniProt P78527)”, the “probe-labelled cysteine peptide fold change” value rises from -0.265 to -0.16.

First: PRKDC_P78527_1455_LAAVVSACK (UniProt P78527)
Second: PRRC2C_Q9Y520_2340_STTTSDPPNICK (UniProt Q9Y520)
The “probe-labelled cysteine peptide fold change” value of the first is lower: -0.223 for the first, -0.198 for the second.

First: PRPF8_Q6P2Q9_435_EHCPAGQPVK (UniProt Q6P2Q9)
Second: PRMT5_O14744_42_QGFDFLCMPVFHPR (UniProt O14744)
The “probe-labelled cysteine peptide fold change” value of the first is higher: -0.012 for the first, -0.133 for the second.

Going from “PRMT5_O14744_622_KVWYEWAVTAPVCSAIHNPTGR (UniProt O14744)” to “PRKCD_Q05655_509_ASTFCGTPDYIAPEILQGLK (UniProt Q05655)”, the “probe-labelled cysteine peptide fold change” value falls from 0.136 to -0.0381.
